{"source": "PubChem BioAssay AID1259308 – NCATS | 2017", "screen": "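Knock-downs that increase output of a recombinant reporter protein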 (primary screen)", "cells": "human HEK293 embryonic kidney cells stably expressing firefly luciferase (HEK-CMV-Luc2-Hygro)", "reagents": "single siRNA against human genes, 0.8 pmol siRNA per well", "timing": "72 h", "detection": "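Luciferase light (ONE-Glo) measured on one replicate plate set and viability (CellTiter-Glo) on the other, scaled to a negative control siRNA, with robust z-scores and luciferase per cell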", "reading the numbers": "total luciferase, z-score and total luciferase, % of control: higher = more reporter protein produced", "call rule": "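An siRNA counts as active if its total luciferase robust z-score exceeds 3; genes with two or more such siRNAs out of three were retested with fresh siRNAs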", "calls": "active = raised luciferase; inactive = no rise", "note": "The whole screen tested about 59,000 reagents; below is an unselected part. About 1,510 of all reagents (2.6%) count as active. 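Calls use total luciferase alone and ignore viability, so some active siRNAs may act by altering cell number.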 Reagents against one gene are numbered here. Not all columns of the deposit are shown."}
{"gene":"GNAZ","reagent no.":1,"total luciferase, z-score":0.281,"total luciferase, % of control":87.5,"outcome":"inactive"}
{"gene":"GNAZ","reagent no.":2,"total luciferase, z-score":0.606,"total luciferase, % of control":93.9,"outcome":"inactive"}
{"gene":"GNAZ","reagent no.":3,"total luciferase, z-score":3.14,"total luciferase, % of control":144,"outcome":"active"}
{"gene":"DCT","reagent no.":1,"total luciferase, z-score":-0.265,"total luciferase, % of control":76.6,"outcome":"inactive"}
{"gene":"DCT","reagent no.":2,"total luciferase, z-score":0.623,"total luciferase, % of control":94.3,"outcome":"inactive"}
{"gene":"DCT","reagent no.":3,"total luciferase, z-score":-0.0877,"total luciferase, % of control":80.1,"outcome":"inactive"}
{"gene":"GANAB","reagent no.":1,"total luciferase, z-score":-1.13,"total luciferase, % of control":59.5,"outcome":"inactive"}
{"gene":"GANAB","reagent no.":2,"total luciferase, z-score":-0.41,"total luciferase, % of control":73.7,"outcome":"inactive"}
{"gene":"GANAB","reagent no.":3,"total luciferase, z-score":0.51,"total luciferase, % of control":92,"outcome":"inactive"}
{"gene":"RPS26P50","reagent no.":1,"total luciferase, z-score":-2.71,"total luciferase, % of control":27.9,"outcome":"inactive"}
{"gene":"RPS26P50","reagent no.":2,"total luciferase, z-score":-2.94,"total luciferase, % of control":23.3,"outcome":"inactive"}
{"gene":"RPS26P50","reagent no.":3,"total luciferase, z-score":-3.76,"total luciferase, % of control":7.15,"outcome":"inactive"}
{"gene":"ZBTB18","reagent no.":1,"total luciferase, z-score":-0.0741,"total luciferase, % of control":80.4,"outcome":"inactive"}
{"gene":"ZBTB18","reagent no.":2,"total luciferase, z-score":-0.207,"total luciferase, % of control":77.8,"outcome":"inactive"}
{"gene":"ZBTB18","reagent no.":3,"total luciferase, z-score":-0.397,"total luciferase, % of control":74,"outcome":"inactive"}
{"gene":"HSPB1","reagent no.":1,"total luciferase, z-score":-2.25,"total luciferase, % of control":37.2,"outcome":"inactive"}
{"gene":"HSPB1","reagent no.":2,"total luciferase, z-score":-0.241,"total luciferase, % of control":77.1,"outcome":"inactive"}
{"gene":"HSPB1","reagent no.":3,"total luciferase, z-score":-1.99,"total luciferase, % of control":42.3,"outcome":"inactive"}
{"gene":"OVOS2P","reagent no.":1,"total luciferase, z-score":1.41,"total luciferase, % of control":110,"outcome":"inactive"}
{"gene":"OVOS2P","reagent no.":2,"total luciferase, z-score":0.433,"total luciferase, % of control":90.5,"outcome":"inactive"}
{"gene":"OVOS2P","reagent no.":3,"total luciferase, z-score":-0.00117,"total luciferase, % of control":81.9,"outcome":"inactive"}
{"gene":"RAB2A","reagent no.":1,"total luciferase, z-score":-0.0891,"total luciferase, % of control":80.1,"outcome":"inactive"}
{"gene":"RAB2A","reagent no.":2,"total luciferase, z-score":-0.715,"total luciferase, % of control":67.7,"outcome":"inactive"}
{"gene":"RAB2A","reagent no.":3,"total luciferase, z-score":-0.818,"total luciferase, % of control":65.6,"outcome":"inactive"}
{"gene":"H3C12","reagent no.":1,"total luciferase, z-score":-2.96,"total luciferase, % of control":23.1,"outcome":"inactive"}
{"gene":"H3C12","reagent no.":2,"total luciferase, z-score":-0.487,"total luciferase, % of control":72.2,"outcome":"inactive"}
{"gene":"H3C12","reagent no.":3,"total luciferase, z-score":-2.77,"total luciferase, % of control":26.8,"outcome":"inactive"}
{"gene":"OR11H6","reagent no.":1,"total luciferase, z-score":0.798,"total luciferase, % of control":97.8,"outcome":"inactive"}
{"gene":"OR11H6","reagent no.":2,"total luciferase, z-score":-0.468,"total luciferase, % of control":72.6,"outcome":"inactive"}
{"gene":"OR11H6","reagent no.":3,"total luciferase, z-score":0.758,"total luciferase, % of control":97,"outcome":"inactive"}
{"gene":"CABP5","reagent no.":1,"total luciferase, z-score":-0.202,"total luciferase, % of control":77.9,"outcome":"inactive"}
{"gene":"CABP5","reagent no.":2,"total luciferase, z-score":0.121,"total luciferase, % of control":84.3,"outcome":"inactive"}
{"gene":"CABP5","reagent no.":3,"total luciferase, z-score":-0.0672,"total luciferase, % of control":80.6,"outcome":"inactive"}

Records above marked active:
{"gene":"GNAZ","reagent no.":3,"total luciferase, z-score":3.14,"total luciferase, % of control":144,"outcome":"active"}
